In the supplement of paper PMC12873370:
Where “and” joins values, the source holds several entries; their conditions need not be identical. Equal entries are not always repeated. This is one part of the list. Repeats are few or missing, and single values can be far off.

What follows are compounds tested on PREPP (mouse prostate epithelium Trp53/Pten KO) (assay: cell viability relative to untreated (fraction); higher = less growth inhibition). Conditions: 5 µM; 3 days.
`NC(=O)CCC(N)C(=O)O` (stereo not given) showed a cell viability of 1.05. In the case of `COc1cc(O)ccc1/C=C/C(=O)c1ccc(O)cc1`, the cell viability is reported as 0.752. With `COc1cc(C2Oc3c(O)cc([C@H]4Oc5cc(O)cc(O)c5C(=O)[C@@H]4O)cc3C2CO)ccc1O` (stereo not given in full) the cell viability was 0.879. `CC[C@H]1OC(=O)C[C@@H](O)[C@H](C)[C@@H](O[C@@H]2O[C@H](C)[C@@H](O)[C@H](N(C)C)[C@H]2O)[C@@H](CCN2C[C@H](C)C[C@H](C)C2)C[C@@H](C)C(=O)/C=C/C(C)=C/[C@@H]1CO[C@@H]1O[C@H](C)[C@@H](O)[C@@H](OC)[C@H]1OC` was tested, and the cell viability was 0.899. `COc1cc2c(cc1OC)[C@@H](Cc1ccc(Oc3cc(C[C@@H]4c5cc(OC)c(OC)cc5CCN4C)ccc3O)cc1)N(C)CC2` was tested, and the cell viability was 0.748. `C[C@@H](O)[C@H]1C(=O)N2C(C(=O)O)=C(S[C@@H]3CN[C@H](C(=O)N(C)C)C3)[C@H](C)[C@H]12` showed a cell viability of 0.987. For `OC[C@H]1O[C@@H](Oc2ccc(O)cc2)[C@H](O)[C@@H](O)[C@@H]1O`, the cell viability was 1.03. For `O=c1cc(-c2ccccc2)oc2cc(O)c(O)c(O)c12`, the cell viability was 1.21. Work on `N[C@@H](COP(=O)(O)O)C(=O)O` yielded a cell viability of 0.906. `Cc1cnc(C)cn1` was tested, and the cell viability was 0.923. `N=C(N)c1ccc(OCCCCCOc2ccc(C(=N)N)cc2)cc1` showed a cell viability of 1.02. Compound `O=C1C[C@@H](c2ccccc2)Oc2cc(O)cc(O)c21` has a cell viability of 0.869. Work on `CC[C@H]1OC(=O)[C@@](C)(F)C(=O)[C@H](C)[C@@H](O[C@@H]2O[C@H](C)C[C@H](N(C)C)[C@H]2O)[C@](C)(OC)C[C@@H](C)C(=O)[C@H](C)[C@H]2N(CCCCn3cc(-c4cccc(N)c4)nn3)C(=O)O[C@]12C` yielded a cell viability of 0.923. `O=c1cc[nH]c(=O)[nH]1` gave a cell viability of 0.954. With `COc1cc(/C=C/C(=O)N2CCC=CC2=O)cc(OC)c1OC` the cell viability was 0.872. For `N[C@@H](CCO)C(=O)O`, the cell viability was 0.905. In the case of `c1nc2c[nH]cnc-2n1`, the cell viability is reported as 1.16. In the case of `CC(S)C(=O)NCC(=O)O` (stereo not given), the cell viability is reported as 1.05. In the case of `CCc1ccc(CCOc2ccc(CC3SC(=O)NC3=O)cc2)nc1` (stereo not given), the cell viability is reported as 0.852. `CCCCCCCCCCCCN1CCCCCC1=O` gave a cell viability of 1.03. For `OC[C@@H](O)[C@@H](O)[C@@H](O)CO`, the cell viability was 0.963. With `Cc1c(S(=O)(=O)O)oc2c1C(=O)C(=O)c1c-2ccc2c1CCCC2(C)C` the cell viability was 0.738. `CCN1CCN(c2cc3c(cc2F)c(=O)c(C(=O)O)cn3C2CC2)CC1` gave a cell viability of 0.954. `COc1ccc(-c2oc3c(CC=C(C)C)c(O[C@@H]4O[C@H](CO)[C@@H](O)[C@H](O)[C@H]4O)cc(O)c3c(=O)c2O[C@@H]2O[C@@H](C)[C@H](O)[C@@H](O)[C@H]2O)cc1` was tested, and the cell viability was 0.929. `CC1(C)S[C@@H]2[C@H](NC(=O)[C@H](NC(=O)N3CCNC3=O)c3ccccc3)C(=O)N2[C@H]1C(=O)O` was tested, and the cell viability was 0.997. `Nc1ncnc2c1ncn2[C@@H]1O[C@H](COP(=O)(O)OP(=O)(O)OP(=O)(O)O)[C@@H](O)[C@H]1O` was tested, and the cell viability was 1.15 and 1.01. `CN1CCN2c3ccccc3Cc3ccccc3C2C1` (stereo not given) showed a cell viability of 0.765. In the case of `O.O.O.O.O=C([O-])CC(O)(CC(=O)[O-])C(=O)[O-].[Li+].[Li+].[Li+]`, the cell viability is reported as 0.831. For `C=C(C)[C@@H]1CC[C@]2(C=O)CC[C@]3(C)[C@H](CC[C@@H]4[C@@]5(C)CC[C@H](O)C(C)(C)[C@@H]5CC[C@]43C)[C@@H]12`, the cell viability was 1.02. Compound `C[C@]12C=CC(=O)C=C1CC[C@@H]1[C@@H]2C(=O)C[C@@]2(C)[C@H]1CC[C@]2(O)C(=O)CO` has a cell viability of 0.877.
